# Assay results as given in PubChem BioAssay AID1645879 (National Center for Advancing Translational Sciences (NCATS), 2021).
# Inconclusive means that the source gave no clear call. Such entries were picked first, then a sample of the others. Where the call is inconclusive, the potency comes from a doubtful curve fit. Active and inactive are the calls of the source. The call rests on the fitted dose curve; in most records, active means well fitted inhibition curve with a large enough effect; inconclusive means small, poorly fitted or top-dose-only effect; inactive means no such curve, though single readings can be large or run the other way.
# Assay: Counterscreen qHTS assay for inhibitors of N-terminal methyltransferase 1 (NTMT1): SPKRIA Counterscreen Assay
# Conditions: biochemical qHTS; series mostly up to 99.2 µM
# Text: Assay Submitter (PI): Rong Huang Ph.D,
# Purdue University, West Lafayette, IN 47907
# The N-terminal methytransferase 1 is the first methyltransferase that methylates protein alpha-N-amines and plays an important role in regulating cell mitosis, chromatin interactions and DNA repair. It is observed to be over-expressed in various cancer patient tissues like malignant melanoma and colorectal cancer tissues. Knockdown of NTMT1 in cancer cells causes cell mitotic defects and enhances sensitivity to DNA damaging chemotherapeutics. […] These critical cellular processes in which NTMT1 is implicated, coupled with emerging links to cellular dysfunction, strengthen the inference that NTMT1 is a compelling novel anticancer target. Progress have been made in understanding the molecular properties of NTMT1 and the biological consequences of protein alpha-N-terminal methylation, but there are no specific small molecule probes available for NTMT1 to fully characterize its MTase activity. To address this unmet need, a panel of assay is created and established to enable quantitative high-throughput screening (qHTS) for novel, potent, and selective small molecule NTMT1 inhibitors. Two orthogonal qHTS that use different reagents (ThioGlo vs. MTaseGlo) are developed for primary robotic screening against the NCATS chemical library of more than 400,000 small molecules. Identified inhibitors are reacquired, validated, and further characterized.
# MTaseGlo Assay is a luminescence screen that measure the activity of methyltransferases based on the reaction product S-adenosyl homocysteine (SAH). The substrate SAM is converted to SAH upon enzyme activation. MTase-Glo reagent and detection solution convert SAH to ATP and measure the light from the luciferase reaction. Nicotinamide N-methyltransferase (NNMT) is a cystolic enzyme that catalyzes the transfer of a methyl group from the co-factor SAM onto the substrate, nicotinamide (NA) to form 1-methyl-nicotinamide (MNA) and SAH. NNMT MTaseGlo assay is used as a counterscreen to evaluate selectivity of identified inhibitors.
# SPKRIA and Ac-RCC-10 control is provided by the Huang laboratory.
# PROTOCOL TABLE; SEQUENCE No. (e.g., 1, 2, 3, etc.); […] (e.g., Cells, Incubation, Reagent, etc.); VALUE; DESCRIPTION
# 1; Reagent; 3 uL; dispense assay buffer.
# 2; Compound; 23 nL; pin compounds and control into the assay plate.
# 3; Time; 15 min; room temperature incubation.
# 4; Reagent; 1 uL; dispensed [4x] substrate or buffer.
# 5; Time; 30 min; incubate at room temperature.
# 6; Reagent; 1 uL; dispense MTase-Glo Reagent (R).
# 7; Time; 30 min; incubate at room temperature.
# 8; Reagent; 5 uL; dispense [1x] MTase-Glo Detection Solution to allow for ADP to be converted to ATP.
# 9; Centrifugation; 1,000 RPMs; assay plates were centrifuged.
# 10; Incubation; 30 min; room temperature.
# 11; Detection; Luminescence; ViewLux plate reader (clear filter, 10 second exposure).
# NOTES (numbers refer to Sequence numbers above; values are from representative experiments)
# 1; Dispense the assay buffer into Greiner 1536-well black / solid bottom assay plate (Greiner Bio One, Monroe, NC).
# 2; Pin control inhibitor Ac-RCC1-10 at a final concentration range of 234 nM to 143 uM using a Wako Pin Tool (Wako Automation USA) equipped with a 1536-slotted pin array (Wako Automation, Richmond, VA). Pin compound library into the assay plates (columns 5 - 48) at a final concentration range of 97 nM to 250 uM.
# 3; Incubate the assay plates at room temperature.
# 4; Dispense 1 uL of substrate SPKRIA solution (final concentration 1 uM) or 1 uL buffer was added to the wells bringing the final assay volume to 4uL. The assay plate was covered with metal lids.
# 5; Incubate the assay plate at room temperature.
# 6; Dispense 1 uL of 5x MTase-Glo Reagent in the assay plate.
# 7; Incubate at room temperature to allow for SAH to be converted to ADP
# 8; Dispense 5 uL of 5x MTase-Glo Detection Solution in the assay plate to allow for ADP to be converted to ATP.
# 9; Assay plates were centrifuged for 15 seconds.
# […]
row,SMILES,Potency
1,COc1cc2nc(Nc3ccc(C)c(C)c3)nc(N)c2cc1OC,"inconclusive: 50.1 µM [inhibitor, partial curve]"
2,Nc1nc2c(s1)C(c1ccccc1Cl)CC(=O)N2 (stereo not given),inactive
3,N#Cc1nc(-c2cccc3ccccc23)oc1NC1CNC1,"inconclusive: 70.8 µM [inhibitor, partial curve]"
4,Fc1cccc(Nc2nc(-c3ccncc3)nc3ccccc23)c1,"inconclusive: 2 µM [inhibitor, full curve]"
5,CC[C@H](c1ccc(O)cc1)[C@@H](CC)c1ccc(O)cc1,inactive
6,Oc1ccc(C2=Cc3ccc(O)cc3OC2)cc1,"inconclusive: 35.5 µM [inhibitor, full curve]"
7,CC(C)c1ccc(Nc2ncnc3c2nc2n3CCCC2)cc1,active: 50.1 µM
8,COc1ccccc1C1NC(=O)c2n[nH]c(-c3cccs3)c21 (stereo not given),"inconclusive: 35.5 µM [inhibitor, full curve]"
9,CN(C)CCC=C1c2ccccc2C=Cc2ccccc21,inactive
10,Oc1cccc(Nc2nc(-c3ccccc3)nc3ccccc23)c1,active: 20 µM
11,O=c1cc(-c2ccccc2)oc2ccccc12,active: 112 µM
12,O=C(O)c1ccc(-c2noc(-c3ccccc3F)n2)cc1,"inconclusive: 39.8 µM [inhibitor, partial curve]"
13,Cc1cc(C)nc(NC(=S)N2CCN(c3ncccc3C#N)CC2)c1,"inconclusive: 79.4 µM [inhibitor, partial curve]"
14,COc1cccc(-c2n[nH]c3c2C(c2cccc(O)c2)N(C)C3=O)c1 (stereo not given),"inconclusive: 50.1 µM [inhibitor, partial curve]"
15,CC(=O)Nc1sc2c(c1-c1nc3ccccc3s1)CCN(C)C2,"inconclusive: 35.5 µM [inhibitor, partial curve]"
